Results reported in article PMC10076289.
No constants are given. Whether binding was seen depends on the method and setting. In cells and extracts the contact can be indirect. Some entries that bind do so weakly or less than the wild type. Blank lines part the entries; values can stand above or below the substance they belong to.

Sequences of proteins named here, by UniProt entry; tags and fusion partners are left off.
UniProt Q2MJT0: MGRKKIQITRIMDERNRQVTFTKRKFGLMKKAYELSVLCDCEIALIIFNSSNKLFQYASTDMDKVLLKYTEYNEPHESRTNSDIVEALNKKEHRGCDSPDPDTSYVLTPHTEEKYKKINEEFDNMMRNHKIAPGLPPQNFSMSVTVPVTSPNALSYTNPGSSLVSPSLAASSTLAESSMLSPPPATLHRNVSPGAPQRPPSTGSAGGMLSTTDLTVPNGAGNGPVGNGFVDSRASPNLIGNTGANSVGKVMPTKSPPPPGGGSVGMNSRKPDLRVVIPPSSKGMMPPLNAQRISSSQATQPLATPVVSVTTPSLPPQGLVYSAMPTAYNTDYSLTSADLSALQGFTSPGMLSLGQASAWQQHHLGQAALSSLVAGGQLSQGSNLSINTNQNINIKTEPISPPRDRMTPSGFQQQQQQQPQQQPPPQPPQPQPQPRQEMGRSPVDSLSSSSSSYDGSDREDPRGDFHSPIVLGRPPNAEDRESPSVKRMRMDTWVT
UniProt O15379: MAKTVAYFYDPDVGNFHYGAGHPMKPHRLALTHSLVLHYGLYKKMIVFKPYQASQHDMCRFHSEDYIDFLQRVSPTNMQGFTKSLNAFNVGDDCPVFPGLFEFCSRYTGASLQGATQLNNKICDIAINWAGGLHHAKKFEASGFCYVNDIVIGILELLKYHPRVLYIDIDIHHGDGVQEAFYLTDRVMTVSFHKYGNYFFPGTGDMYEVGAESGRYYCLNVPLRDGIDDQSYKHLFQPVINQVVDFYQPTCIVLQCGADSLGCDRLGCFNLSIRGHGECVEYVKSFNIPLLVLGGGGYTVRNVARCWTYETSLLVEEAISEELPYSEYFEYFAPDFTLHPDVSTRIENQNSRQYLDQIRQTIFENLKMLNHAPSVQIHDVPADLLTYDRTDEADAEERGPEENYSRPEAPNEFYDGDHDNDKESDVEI
UniProt Q02078: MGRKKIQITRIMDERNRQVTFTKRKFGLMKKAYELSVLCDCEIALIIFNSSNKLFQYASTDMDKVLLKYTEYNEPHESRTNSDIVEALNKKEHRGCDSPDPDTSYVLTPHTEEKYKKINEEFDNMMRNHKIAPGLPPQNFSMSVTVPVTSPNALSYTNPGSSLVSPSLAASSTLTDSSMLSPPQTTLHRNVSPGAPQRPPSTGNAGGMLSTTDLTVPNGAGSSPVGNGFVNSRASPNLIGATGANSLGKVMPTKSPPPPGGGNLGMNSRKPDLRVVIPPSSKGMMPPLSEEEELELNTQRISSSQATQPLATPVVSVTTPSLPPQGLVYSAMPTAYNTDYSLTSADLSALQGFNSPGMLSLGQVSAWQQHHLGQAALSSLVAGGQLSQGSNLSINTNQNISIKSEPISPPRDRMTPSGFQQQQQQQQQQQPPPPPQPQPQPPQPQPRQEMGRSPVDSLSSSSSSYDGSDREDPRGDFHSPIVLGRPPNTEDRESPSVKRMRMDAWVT
UniProt P52631: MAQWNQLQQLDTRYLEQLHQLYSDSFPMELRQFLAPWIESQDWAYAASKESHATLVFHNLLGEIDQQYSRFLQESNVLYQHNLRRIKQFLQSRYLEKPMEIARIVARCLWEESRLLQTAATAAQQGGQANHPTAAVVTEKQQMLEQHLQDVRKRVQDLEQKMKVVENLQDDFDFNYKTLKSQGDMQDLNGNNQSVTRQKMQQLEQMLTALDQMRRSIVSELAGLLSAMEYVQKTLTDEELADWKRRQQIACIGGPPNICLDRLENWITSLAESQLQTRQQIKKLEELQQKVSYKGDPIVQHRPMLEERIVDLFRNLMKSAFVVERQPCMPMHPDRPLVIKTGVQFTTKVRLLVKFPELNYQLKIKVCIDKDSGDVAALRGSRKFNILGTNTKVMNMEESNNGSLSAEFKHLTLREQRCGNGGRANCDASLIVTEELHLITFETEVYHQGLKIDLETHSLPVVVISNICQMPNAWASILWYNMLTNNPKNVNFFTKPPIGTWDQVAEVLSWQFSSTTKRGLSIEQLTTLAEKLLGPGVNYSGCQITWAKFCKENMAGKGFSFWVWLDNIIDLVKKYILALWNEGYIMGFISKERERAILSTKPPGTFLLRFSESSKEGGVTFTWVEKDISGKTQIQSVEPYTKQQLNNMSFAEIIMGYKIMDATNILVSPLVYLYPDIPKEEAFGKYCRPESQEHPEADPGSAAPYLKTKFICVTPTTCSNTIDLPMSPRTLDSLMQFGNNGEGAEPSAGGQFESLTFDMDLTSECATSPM

Legend:
[1] = target: endogenous MEF2A (rat (endogenous in primary neonatal rat cardiomyocytes)) (UniProt Q2MJT0); assay: co-IP; endogenous proteins from non-transfected primary rat cardiomyocyte lysates, IP with MEF2A antibody or STAT3 antibody, IgG as control, Western blot
Flag-HDAC3 = Flag-HDAC3 (UniProt O15379); assay: co-IP; lysates (NP-40 lysis buffer) of primary rat cardiomyocytes transfected with the Flag-tagged bait, anti-Flag M2 magnetic beads, Western blot of eluates; non-transfected lysates as control; for Flag-MEF2A also after isoproterenol (24 h), HDAC3 inhibitor RGFP966 or STAT3 inhibitor C188-9
3xFlag-MEF2A = 3xFlag-MEF2A (UniProt Q02078); assay: as above
[2] = target: STAT3 (rat (endogenous in primary neonatal rat cardiomyocytes)) (UniProt P52631); assay: co-IP; endogenous proteins from non-transfected primary rat cardiomyocyte lysates, IP with MEF2A antibody or STAT3 antibody, IgG as control, Western blot

binding [1]: binds
Substance: RBPMS (from UniProt A0A8I6G705 1-197)

binding (Flag-HDAC3): binds | binding (3xFlag-MEF2A): binds
Substance: STAT3 (from UniProt P52631 1-770)

binding [2]: binds
Substance: endogenous MEF2A (from UniProt Q2MJT0 1-495)
